The results in this text go back to patent US5256559A (Biogen, Inc., priority 1991, dated 1993).

Bounds are passed on as bounds.

Data set [1] in a line: general procedure: Boc solid-phase peptide synthesis; Boc-Leu-OCH2-PAM resin (1% DVB). The conditions noted are these: whole synthesis, scale 0.55 mmoles.
Data set [2] is described as follows: general procedure: Boc solid-phase peptide synthesis; Boc-O-benzyl-L-Thr-O-resin (1% DVB). The note with it: whole synthesis, scale 0.259 meq.
Data set [3] is described as follows: general procedure: Boc solid-phase peptide synthesis; Boc-Leu-O-resin (1% divinylbenzene resin (DVB)). The conditions noted are these: whole synthesis.
The nature of data set [4]: general procedure: Boc solid-phase peptide synthesis; Boc-Leu-O-resin (1% DVB). The note with it: whole synthesis, scale 0.259 meq.

As for H-EEIFEEYL-OH, in data set [1], the crude yield stood at 17.9%.

H-LYEEPIEEFDGNNHSEPNPT-OH came in with a crude mass in data set [2] of 120 mg. Besides, the “crude HPLC purity” value in data set [3] (reverse-phase HPLC, Vydac C4 or Aquapore RP-300 C8, absorbance at 215 nm, scale of the general procedure 0.259 meq) is on record as greater than 90%. In addition, the crude yield in data set [3] (scale of the general procedure 0.259 meq) turned out to be 19.9%.

In the case of “H-Thr-Pro-Asn-Pro-Glu-Ser-His-Asn-Asn-Gly-Asp-Phe-Glu-Glu-Ile-Pro-Glu-Glu- Tyr-Leu-OH”, the crude mass result in data set [4] is listed as “Approximately 100 mg”. The “crude HPLC purity” value in data set [3] (214 nm, scale of the general procedure 0.259 meq) is recorded as greater than 90%. The same substance yielded a crude yield in data set [3] (scale 0.259 meq) of 17%.
